According to PubChem BioAssay AID248 (DTP/NCI, 2004):
The list shows only some results of the screen, not a fair sample: it is rich in T/C values a quarter to a half above the control, in often repeated tests (any T/C) and in doses without a T/C. Other doses and runs of a compound stand elsewhere. T/C: endpoint of the treated group in % of that of the vehicle group. Some doses have a count of surviving animals in place of a T/C: the source files T/C as zero there, which appears to mark a toxic dose or a test without result, not a measured value. Some survivor counts are full or nearly so, which does not show that the dose was tolerated: survival well below the control is almost never listed, so the zero probably covers shortened survival too. Counts of survivors are from the toxicity check (mostly the fifth day) where no day follows; animals may have died later. Schedules are NCI's codes, read here as Q, the interval in days (D) or hours (H), X, the number of doses. For survival time, the PubChem record calls one and a half times the control and up active, and a quarter to a half above the control has no call in these data; cut-offs in other NCI protocols can differ. Some T/C values are followed by the survivors on the day toxicity was checked, most often the fifth; without a count, all were alive then. Some doses were run more than once; the values are given in rising order. Marks such as (2×) give the number of equal values in this list.

Test system: L1210 leukemia ip in BDF1 mice, survival T/C
Assay: NCI In Vivo Anticancer Drug Screen. Data for tumor model L1210 Leukemia (intraperitoneal) in B6D2F1 (BDF1) mice
Conditions: higher T/C = longer survival
[1] = T/C endpoint: mean survival time, dose: 400.0 mg/kg/injection, schedule: Q04DX003 (ip), vehicle: saline
[2] = T/C endpoint: median survival time, dose: 64.0 mg/kg/injection, schedule: Q01DX009 (oral), vehicle: saline with Tween-80

CC(CN1CC(=O)NC(=O)C1)N1CC(=O)NC(=O)C1 (configuration not stated)
T/C (T/C endpoint: mean survival time, dose: 200.0 mg/kg/injection, schedule: Q04DX003 (ip), vehicle: saline with Tween-80, evaluated on day 20): 117 % of control | T/C (T/C endpoint: mean survival time, dose: 200.0 mg/kg/injection, schedule: Q04DX003 (ip), vehicle: saline with Tween-80, evaluated on day 30): 138 % of control | T/C (T/C endpoint: mean survival time, dose: 200.0 mg/kg/injection, schedule: Q04DX003 (ip), vehicle: saline with Tween-80, evaluated on day 60): 117 and 120 % of control | T/C (T/C endpoint: mean survival time, dose: 200.0 mg/kg/injection, schedule: Q04DX003 (ip), vehicle: saline, evaluated on day 30): 94, 135 [5 of 6 alive], 137, 140, 142, 165 % of control | T/C (T/C endpoint: mean survival time, dose: 200.0 mg/kg/injection, schedule: Q04DX003 (ip), vehicle: saline, evaluated on day 60): 210 % of control | T/C (T/C endpoint: mean survival time, dose: 200.0 mg/kg/injection, schedule: Q04DX003 (ip), vehicle: water, evaluated on day 5): 236, 239, 282 % of control | T/C (T/C endpoint: mean survival time, dose: 200.0 mg/kg/injection, schedule: Q04DX003 (ip), vehicle: water, evaluated on day 30): 152 % of control | T/C (T/C endpoint: mean survival time, dose: 200.0 mg/kg/injection, schedule: Q04DX003 (ip), vehicle: water, evaluated on day 60): 282 and 365 % of control | T/C (T/C endpoint: mean survival time, dose: 200.0 mg/kg/injection, schedule: Q04DX003 (iv), vehicle: water): 135, 142, 149 % of control | T/C (T/C endpoint: mean survival time, dose: 200.0 mg/kg/injection, schedule: Q08DX002 (oral), vehicle: steroid suspending solution): 146 % of control | T/C (T/C endpoint: mean survival time, dose: 268.0 mg/kg/injection, schedule: Q01DX001 (ip), vehicle: saline): 126 % of control | T/C (T/C endpoint: mean survival time, dose: 400.0 mg/kg/injection, schedule: Q01DX001 (ip), vehicle: saline, evaluated on day 5): 143 % of control | T/C (T/C endpoint: mean survival time, dose: 400.0 mg/kg/injection, schedule: Q01DX001 (ip), vehicle: saline, evaluated on day 60): 143 and 148 % of control | T/C (T/C endpoint: mean survival time, dose: 400.0 mg/kg/injection, schedule: Q01DX001 (ip), vehicle: steroid suspending solution): 130 % of control [7 of 8 alive] | T/C (T/C endpoint: mean survival time, dose: 400.0 mg/kg/injection, schedule: Q04DX003 (ip), vehicle: Klucel (hydroxypropylcellulose) (HPC), evaluated on day 5): 109, 114, 195 % of control | T/C (T/C endpoint: mean survival time, dose: 400.0 mg/kg/injection, schedule: Q04DX003 (ip), vehicle: Klucel (hydroxypropylcellulose) (HPC), evaluated on day 30): 116 [5 of 6 alive], 138, 143, 170, 175 % of control | T/C (T/C endpoint: mean survival time, dose: 400.0 mg/kg/injection, schedule: Q04DX003 (ip), vehicle: Klucel (hydroxypropylcellulose) (HPC), evaluated on day 60): 114 (2×), 158, 160, 193 % of control | T/C (T/C endpoint: mean survival time, dose: 400.0 mg/kg/injection, schedule: Q04DX003 (ip), vehicle: saline with Tween-80, evaluated on day 20): 162 % of control | T/C (T/C endpoint: mean survival time, dose: 400.0 mg/kg/injection, schedule: Q04DX003 (ip), vehicle: saline with Tween-80, evaluated on day 30): 182 % of control | T/C (T/C endpoint: mean survival time, dose: 400.0 mg/kg/injection, schedule: Q04DX003 (ip), vehicle: saline with Tween-80, evaluated on day 60): 134 and 136 % of control | T/C [1]: 125, 133, 161, 174, 182, 197 % of control | survivor count [1]: 10 of 10 | T/C (T/C endpoint: mean survival time, dose: 400.0 mg/kg/injection, schedule: Q04DX003 (ip), vehicle: steroid suspending solution): 129 % of control | T/C (T/C endpoint: mean survival time, dose: 400.0 mg/kg/injection, schedule: Q04DX003 (ip), vehicle: water, evaluated on day 5): 101, 102, 105 % of control | T/C (T/C endpoint: mean survival time, dose: 400.0 mg/kg/injection, schedule: Q04DX003 (ip), vehicle: water, evaluated on day 30): 171 % of control | T/C (T/C endpoint: mean survival time, dose: 400.0 mg/kg/injection, schedule: Q04DX003 (ip), vehicle: water, evaluated on day 60): 105 and 164 % of control | T/C (T/C endpoint: mean survival time, dose: 400.0 mg/kg/injection, schedule: Q04DX003 (iv), vehicle: water): 138 % of control [9 of 10 alive] | T/C (T/C endpoint: mean survival time, dose: 400.0 mg/kg/injection, schedule: Q04DX003 (oral), vehicle: steroid suspending solution): 146 % of control | T/C (T/C endpoint: mean survival time, dose: 400.0 mg/kg/injection, schedule: Q08DX002 (oral), vehicle: steroid suspending solution): 148 % of control | T/C (T/C endpoint: mean survival time, dose: 512.0 mg/kg/injection, schedule: Q04DX003 (oral), vehicle: saline with Tween-80): 132 % of control | T/C (T/C endpoint: mean survival time, dose: 800.0 mg/kg/injection, schedule: Q01DX001 (ip), vehicle: steroid suspending solution): 133 % of control | T/C (T/C endpoint: mean survival time, dose: 800.0 mg/kg/injection, schedule: Q01DX001 (oral), vehicle: steroid suspending solution): 128 % of control | survivor count (T/C endpoint: mean survival time, dose: 800.0 mg/kg/injection, schedule: Q04DX003 (ip), vehicle: steroid suspending solution): 5 of 8 | T/C (T/C endpoint: mean survival time, dose: 1600.0 mg/kg/injection, schedule: Q08DX002 (oral), vehicle: steroid suspending solution): 132 % of control | T/C (T/C endpoint: median survival time, dose: 2.0 mg/kg/injection, schedule: Q03HX024 (ip), vehicle: Klucel (hydroxypropylcellulose) (HPC), evaluated on day 7): 141 % of control | T/C (T/C endpoint: median survival time, dose: 2.0 mg/kg/injection, schedule: Q03HX024 (ip), vehicle: Klucel (hydroxypropylcellulose) (HPC), evaluated on day 30): 141 % of control | T/C (T/C endpoint: median survival time, dose: 8.0 mg/kg/injection, schedule: Q01DX009 (ip), vehicle: saline with Tween-80): 121, 123, 126 (2×), 129 % of control | T/C (T/C endpoint: median survival time, dose: 8.0 mg/kg/injection, schedule: Q01DX009 (oral), vehicle: saline with Tween-80): 127, 129, 132, 134 % of control | T/C (T/C endpoint: median survival time, dose: 12.5 mg/kg/injection, schedule: Q01DX009 (ip), vehicle: Klucel (hydroxypropylcellulose) (HPC)): 146 % of control | T/C (T/C endpoint: median survival time, dose: 12.5 mg/kg/injection, schedule: Q03HX008 (ip), vehicle: Klucel (hydroxypropylcellulose) (HPC)): 144 % of control | T/C (T/C endpoint: median survival time, dose: 16.0 mg/kg/injection, schedule: Q01DX009 (ip), vehicle: saline with Tween-80): 136, 142, 144, 145, 152 % of control | T/C (T/C endpoint: median survival time, dose: 16.0 mg/kg/injection, schedule: Q01DX009 (oral), vehicle: saline with Tween-80): 142, 144, 150, 158 % of control | T/C (T/C endpoint: median survival time, dose: 16.0 mg/kg/injection, schedule: Q01DX009 (sc), vehicle: saline with Tween-80): 125 % of control | T/C (T/C endpoint: median survival time, dose: 16.0 mg/kg/injection, schedule: Q03HX024 (ip), vehicle: Klucel (hydroxypropylcellulose) (HPC), evaluated on day 7): 146 and 220 % of control | T/C (T/C endpoint: median survival time, dose: 16.0 mg/kg/injection, schedule: Q03HX024 (ip), vehicle: Klucel (hydroxypropylcellulose) (HPC), evaluated on day 30): 220 % of control | T/C (T/C endpoint: median survival time, dose: 16.0 mg/kg/injection, schedule: Q03HX024 (ip), vehicle: Klucel (hydroxypropylcellulose) (HPC), evaluated on day 32): 130 % of control [7 of 8 alive] | T/C (T/C endpoint: median survival time, dose: 25.0 mg/kg/injection, schedule: Q01DX009 (ip), vehicle: Klucel (hydroxypropylcellulose) (HPC)): 145 % of control | T/C (T/C endpoint: median survival time, dose: 27.0 mg/kg/injection, schedule: Q03HX024 (ip), vehicle: Klucel (hydroxypropylcellulose) (HPC), evaluated on day 7): 148 % of control | T/C (T/C endpoint: median survival time, dose: 27.0 mg/kg/injection, schedule: Q03HX024 (ip), vehicle: Klucel (hydroxypropylcellulose) (HPC), evaluated on day 32): 145 % of control | T/C (T/C endpoint: median survival time, dose: 32.0 mg/kg/injection, schedule: Q01DX009 (ip), vehicle: saline with Tween-80): 156, 158, 165, 173, 176 % of control | T/C (T/C endpoint: median survival time, dose: 32.0 mg/kg/injection, schedule: Q01DX009 (oral), vehicle: saline with Tween-80): 104, 130 [9 of 10 alive], 158, 184 % of control | T/C (T/C endpoint: median survival time, dose: 50.0 mg/kg/injection, schedule: Q03HX008 (ip), vehicle: Klucel (hydroxypropylcellulose) (HPC)): 134 % of control | T/C (T/C endpoint: median survival time, dose: 50.0 mg/kg/injection, schedule: Q04DX003 (ip), vehicle: Klucel (hydroxypropylcellulose) (HPC), evaluated on day 5): 93, 105, 108, 132, 164 % of control | T/C (T/C endpoint: median survival time, dose: 50.0 mg/kg/injection, schedule: Q04DX003 (ip), vehicle: Klucel (hydroxypropylcellulose) (HPC), evaluated on day 30): 132 % of control | T/C (T/C endpoint: median survival time, dose: 50.0 mg/kg/injection, schedule: Q04DX003 (ip), vehicle: Klucel (hydroxypropylcellulose) (HPC), evaluated on day 46): 95 % of control | T/C (T/C endpoint: median survival time, dose: 50.0 mg/kg/injection, schedule: Q04DX003 (ip), vehicle: Klucel (hydroxypropylcellulose) (HPC), evaluated on day 60): 100, 108, 166 % of control | T/C (T/C endpoint: median survival time, dose: 64.0 mg/kg/injection, schedule: Q01DX009 (ip), vehicle: saline with Tween-80): 141, 150 [9 of 10 alive], 168, 173, 176 % of control | T/C [2]: 97, 101 [9 of 10 alive], 124 % of control | survivor count [2]: 10 of 10 | T/C (T/C endpoint: median survival time, dose: 64.0 mg/kg/injection, schedule: Q01DX009 (sc), vehicle: saline with Tween-80): 139 % of control | T/C (T/C endpoint: median survival time, dose: 64.0 mg/kg/injection, schedule: Q03HX024 (ip), vehicle: Klucel (hydroxypropylcellulose) (HPC), evaluated on day 7): 138 % of control | T/C (T/C endpoint: median survival time, dose: 64.0 mg/kg/injection, schedule: Q03HX024 (ip), vehicle: Klucel (hydroxypropylcellulose) (HPC), evaluated on day 30): 138 % of control
